Laboratory results reported in the supplement of paper PMC8426693.
The other results are listed elsewhere or left out.

The compounds below were run on SARS-CoV-2 5'-UTR RNA (assay: NMR binding call after quantification (hit when 2 of 3 NMR criteria are met) (binary (1 = binding, 0 = not binding)); higher = binding). Settings: RNA concentration 10 µM; fragment concentration 200 µM; 293 K.
Work on `CCc1noc(C)c1C(=O)Nc1cc(C)on1` yielded an NMR binding call of 0. Work on `Cn1cc(C(N)=O)c(C(F)F)n1` yielded an NMR binding call of 0. Compound `Cc1cc(C(=O)Nc2ccc3[nH]ccc3c2)no1` has an NMR binding call of 0. For `CC(=O)NCc1cn[nH]c1`, the NMR binding call was 0. For `Oc1ccc(CN2CCCC2)c2cccnc12`, the NMR binding call was 1. `Cc1ccccc1OCC(=O)Nc1ncccn1` was tested, and the NMR binding call was 1. In the case of `O=C(Nc1ccc(-n2cnnn2)cc1)C1CCC1`, the NMR binding call is reported as 0. With `CS(=O)(=O)Nc1ccc(CN)cc1.Cl` the NMR binding call was 0. `CC(C)C(=O)NCc1nc2ccccc2[nH]1` gave an NMR binding call of 0. For `CNC(=O)Nc1nc2ccc(OC)cc2s1`, the NMR binding call was 0. `CC(=O)Nc1ccc2[nH]c(=O)[nH]c2c1` was tested, and the NMR binding call was 0. For `CNC(=O)c1nc2ccccc2c(=O)[nH]1`, the NMR binding call was 1. `c1ccc(CNC2CCNC2)cc1` (stereo not given) showed an NMR binding call of 0. `CC1CCC(NC2CCC(O)CC2)CC1` (stereo not given) gave an NMR binding call of 0. Work on `Cc1cccc(CN2CCOCC2)c1` yielded an NMR binding call of 0. `Cl.Cl.O=C(c1ccncc1)N1CCNCC1` was tested, and the NMR binding call was 0. Compound `COCC(=O)Nc1nc(-c2ccccc2)cs1` has an NMR binding call of 0. `Cc1ccc(N2CCN(C(N)=O)CC2)cc1` was tested, and the NMR binding call was 0. `O=C(NCCc1ccc(O)cc1)c1ccccn1` gave an NMR binding call of 0. For `O=C1CN(C(=O)COc2ccccc2)CCN1`, the NMR binding call was 0. `COc1ccc(CN2CCOCC2)cc1OC` was tested, and the NMR binding call was 0. `NCc1ccc(-c2cccs2)cc1` showed an NMR binding call of 0. Compound `CC1CCCN(C(=O)CO)C1` (stereo not given) has an NMR binding call of 0. `O=C(NO)c1ccc2ccccc2n1` showed an NMR binding call of 1. Work on `COC(=O)C1CCN(CC(N)=O)CC1` yielded an NMR binding call of 0. Compound `CN(C)Cc1nc(C2(N)CCCC2)no1` has an NMR binding call of 0. `Cc1ccc(NC(=O)C2CCCO2)nc1` (stereo not given) was tested, and the NMR binding call was 0. `CS(=O)(=O)c1nccn1Cc1cscn1` was tested, and the NMR binding call was 0. For `CC(CO)(CO)NC(=O)Nc1ccccc1`, the NMR binding call was 0. Compound `CN1CCN(c2ccc(C#N)cc2)CC1` has an NMR binding call of 0. `CC(=O)c1ccc(OC(F)F)cc1` gave an NMR binding call of 0. For `Cc1ccc(OCC(=O)Nc2cc(C)on2)cc1`, the NMR binding call was 0. With `Cl.NC1CCN(S(=O)(=O)c2ccccc2)C1` (stereo not given) the NMR binding call was 0. Work on `Cc1cc(CN(C)C(=O)NC2CC2)no1` yielded an NMR binding call of 0. `CC(C)NCc1ccc(N(C)C)cc1` showed an NMR binding call of 0. `CC(=O)Nc1ccc(NC(=O)C2CC2(C)C)cc1` (stereo not given) gave an NMR binding call of 0. Work on `CCOC(=O)c1sc(N(C)C(C)=O)nc1C` yielded an NMR binding call of 0. With `Cc1cc(N2CCNCC2)nc(C)n1` the NMR binding call was 1. Compound `CC(=O)Nc1cc(C)n[nH]1` has an NMR binding call of 0. With `OCc1ccc(-n2cnc3ccccc32)cc1` the NMR binding call was 1.
